# Data taken from PubChem BioAssay AID651768 (National Center for Advancing Translational Sciences (NCATS), 2012).
# The chains behind the UniProt entries cited, without tags or fusion partners.
# UniProt Q14191, whole entry, looked up: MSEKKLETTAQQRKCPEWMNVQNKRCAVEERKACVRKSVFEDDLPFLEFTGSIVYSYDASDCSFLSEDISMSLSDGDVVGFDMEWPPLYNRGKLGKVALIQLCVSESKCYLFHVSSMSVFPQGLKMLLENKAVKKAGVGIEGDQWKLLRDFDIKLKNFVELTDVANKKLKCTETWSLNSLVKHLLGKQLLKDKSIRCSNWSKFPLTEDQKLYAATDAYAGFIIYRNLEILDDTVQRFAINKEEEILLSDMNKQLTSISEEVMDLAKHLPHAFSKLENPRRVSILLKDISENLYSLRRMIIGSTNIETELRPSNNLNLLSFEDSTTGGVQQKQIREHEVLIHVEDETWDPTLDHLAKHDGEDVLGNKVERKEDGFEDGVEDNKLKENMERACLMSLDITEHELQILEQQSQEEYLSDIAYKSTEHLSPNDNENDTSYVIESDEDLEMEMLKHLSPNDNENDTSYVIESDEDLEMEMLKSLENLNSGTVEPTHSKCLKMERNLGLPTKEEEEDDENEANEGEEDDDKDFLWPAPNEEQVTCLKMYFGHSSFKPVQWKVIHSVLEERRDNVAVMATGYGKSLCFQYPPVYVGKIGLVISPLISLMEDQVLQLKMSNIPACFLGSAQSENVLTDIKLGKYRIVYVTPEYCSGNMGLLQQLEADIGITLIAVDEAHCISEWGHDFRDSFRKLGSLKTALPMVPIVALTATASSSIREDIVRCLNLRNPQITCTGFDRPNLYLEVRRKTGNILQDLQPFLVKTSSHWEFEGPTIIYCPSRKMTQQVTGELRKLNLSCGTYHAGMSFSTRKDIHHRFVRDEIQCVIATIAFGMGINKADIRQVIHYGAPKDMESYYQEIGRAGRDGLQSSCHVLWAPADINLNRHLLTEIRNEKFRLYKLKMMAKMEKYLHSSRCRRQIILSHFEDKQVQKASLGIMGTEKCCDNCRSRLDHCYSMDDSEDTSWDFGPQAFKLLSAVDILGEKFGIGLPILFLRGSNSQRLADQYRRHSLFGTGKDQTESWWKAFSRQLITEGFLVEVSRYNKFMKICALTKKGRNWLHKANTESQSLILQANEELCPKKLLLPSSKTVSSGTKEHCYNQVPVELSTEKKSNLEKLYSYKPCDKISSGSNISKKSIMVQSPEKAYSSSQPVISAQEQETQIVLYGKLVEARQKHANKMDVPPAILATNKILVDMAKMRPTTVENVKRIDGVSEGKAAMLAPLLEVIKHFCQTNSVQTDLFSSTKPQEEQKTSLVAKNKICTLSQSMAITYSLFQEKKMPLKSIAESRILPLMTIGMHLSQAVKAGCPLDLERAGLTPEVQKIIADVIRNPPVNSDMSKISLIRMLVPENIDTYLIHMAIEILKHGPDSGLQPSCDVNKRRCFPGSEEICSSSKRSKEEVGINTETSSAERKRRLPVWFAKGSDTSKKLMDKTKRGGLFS
# In all, about 360,000 compounds went through this assay and about 1,700 (0.47%) were called active. Inconclusive results, whose numbers are uncertain, are shown with a selection of clear calls. Calls follow the shape of the dose curve; as a rule, active = well fitted inhibition curve with a large enough effect; inconclusive = small, poorly fitted or top-dose-only effect; inactive = no such curve, though single readings can be large or run the other way. Potencies beside an inconclusive call are fits to weak or partial responses and may not hold up.
# Target: Bifunctional 3'-5' exonuclease/ATP-dependent helicase WRN (Homo sapiens) (UniProt Q14191)
# Assay: qHTS for Inhibitors of WRN Helicase; also: nearly all actives have a fitted effect of over 55% in size
# Details: WRN helicase unwinding, fluorescent forked duplex, kinetic; activity change, negative = inhibition: at 114 µM (top of the series) unless noted
# In short: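 Fluorescence dequenching readout, ex 525 nm/em 598 nm, kinetic mode: forked duplex DNA (100 nM final) with adjacent fluorophore and quencher unwound by WRN (20 nM final) with 2 mM ATP. Compound preincubation 15 min, room temperature.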
# % is scaled to controls: 0 for no effect and ±100 for the full control effect; potency is read from the fitted curve at half-maximal effect.
SMILES,Potency,"activity change, negative = inhibition"
O=C(CSc1nnc(-c2cnccn2)n1Cc1ccco1)c1ccc(Cl)cc1,"inconclusive: 28.2 µM [inhibitor, full curve]",
CCOc1ccc(C2Nc3ccccc3C(CC)(CC)O2)cc1 (stereo not given),,inactive: 5.04%
Cc1cccc(C)c1NC(=O)CN1C(=O)S/C(=C\c2cccn2-c2cccc(C(=O)O)c2)C1=O,"inconclusive: 70.8 µM [inhibitor, partial curve]",
O=c1[nH]c(-c2ccccc2)nc(CN2CCCCC2)c1O,"inconclusive: 20 µM [inhibitor, full curve, poor fit]",
COc1cc(/C=C/c2cc(C(F)(F)F)[nH]c(=O)n2)cc(OC)c1OC,"inconclusive: 22.4 µM [inhibitor, single point]",
O=C(NCCC(F)(F)F)c1cccc2c(-c3ccc(F)c(F)c3)coc12,,inactive: -7.4%
COc1ccc(NC(=O)Cn2cnc3sc(C)c(S(=O)(=O)N4CCN(C)CC4)c3c2=O)cc1OC,"inconclusive: 39.8 µM [inhibitor, single point]",
Cc1cccc(OC(C)C(=O)Nc2ccc3c(c2)OCCO3)c1 (stereo not given),,inactive: -9.24%
Cn1c(SCC(=O)N2c3ccccc3CCc3ccccc32)nnc1-c1ccc(O)cc1,"inconclusive: 31.6 µM [inhibitor, single point]",
Cc1[nH]c2ccccc2c1N=Nc1ccccc1C(=O)O,"inconclusive: 28.2 µM [inhibitor, partial curve]",
O=C(N/C(=C\c1cccc([N+](=O)[O-])c1)C(=O)N1CCOCC1)c1cccc(Br)c1,"inconclusive: 100 µM [inhibitor, single point]",
COc1ccc(C(=S)Nc2ccc(C)cc2)cc1,,inactive: -23.6%
Cc1ccc2nc(N3C(=O)C(O)=C(C(=O)c4ccco4)C3c3ccc(C)o3)sc2c1 (stereo not given),"inconclusive: 56.2 µM [inhibitor, partial curve]",
COP(=O)(OC)c1ccc(NCc2cc(O)ccc2O)cc1,active: 56.2 µM,
N#CC1=C(N)NC(=S)C(C(N)=O)C1c1ccc([N+](=O)[O-])cc1 (stereo not given),"inconclusive: 35.5 µM [inhibitor, partial curve]",
Cc1ccc(S(=O)(=O)Nc2nnc(C(C)(C)C)s2)cc1,,inactive: 1.98%
COc1ccc(N(CC(=O)Nc2ccccc2OC)S(=O)(=O)c2ccc(NC(C)=O)cc2)cc1,"inconclusive: 10 µM [inhibitor, full curve]",
Cc1ccc(-n2c(O)c(/C=N/c3ncn[nH]3)c3ccccc3c2=O)cc1,"inconclusive: 28.2 µM [inhibitor, partial curve]",
Clc1ccc(-c2nc3ncccn3c2Cl)cc1,,inactive: -8.41%
CC(NC(=O)Cc1ccc(S(=O)(=O)N2CCOCC2)s1)c1ccc(Br)cc1 (stereo not given),"inconclusive: 25.1 µM [inhibitor, single point]",
COc1ccc(/C=C(\NC(=O)c2ccccc2)C(=O)NCCN2CCOCC2)cc1OC,"inconclusive: 100 µM [inhibitor, single point]",
O=C(CSC(=S)N1CCOCC1)c1cc2ccccc2oc1=O,,inactive: -8.35%
Cc1cccc(-c2nc3ccccc3c(=O)n2NC(=S)N(C)C)c1,"inconclusive: 50.1 µM [inhibitor, partial curve]",
COc1cc(NC(=O)CSc2nncn2C)c(C)cc1[N+](=O)[O-],"inconclusive: 39.8 µM [inhibitor, single point]",

SMILES,Potency,"activity change, negative = inhibition"
O=Cc1ccc2oc3nc4n(c(=O)c3c(=O)c2c1)CCCS4,active: 20 µM,
COc1cc(/C=C2/SC(=S)N(Cc3ccccc3)C2=O)ccc1OCC(=O)O,,inactive: -12.6% [at 57.1 µM]
COc1ccc(/C=N/NC(=O)c2ccc(Br)cc2)cc1Cn1cc(Cl)cn1,"inconclusive: 31.6 µM [inhibitor, full curve, poor fit]",
CCOC(=O)Cc1cc(=O)n2[nH]c(-c3ccccc3)c(-c3ccccc3)c2n1,"inconclusive: 25.1 µM [inhibitor, single point]",
CCc1ccc(OCC(=O)N/N=C\c2ccco2)c([N+](=O)[O-])c1,"inconclusive: 1.5 µM [inhibitor, full curve, poor fit]",
Cc1ccc2c(=O)cc(C(=O)NCCc3ccc(S(N)(=O)=O)cc3)oc2c1,"inconclusive: 56.2 µM [inhibitor, partial curve]",
Cc1ccc(S(=O)(=O)/N=C2\C=C(Nc3cccc(C(=O)O)c3)C(=O)c3ccccc32)c(C)c1,"inconclusive: 15.8 µM [inhibitor, full curve, poor fit]",
CC1CN(c2ccccc2)NC1=O (stereo not given),,inactive: -18.9%
Cc1ccc(S(=O)(=O)NN2C(=O)/C(=C\c3ccc(Cl)cc3)SC2=S)cc1,"inconclusive: 89.1 µM [inhibitor, single point]",
Cn1ncc(Cl)c1C(=O)N1CCN(S(=O)(=O)c2ccc(Cl)s2)CC1,"inconclusive: 44.7 µM [inhibitor, partial curve]",
Cc1cc(C)c2nc(-c3ccccn3)cc(C(=O)Nc3cc(C)on3)c2c1,,inactive: -24.1% [at 57.1 µM]
CSc1nnc2c3cc(C)ccc3n(Cc3ccccc3)c2n1,"inconclusive: 79.4 µM [inhibitor, partial curve]",
CC(C)C(CCNC(=O)CC(Cc1ccccc1)c1ccco1)c1ccco1 (stereo not given),,inactive: -12.2% [at 11.6 µM]
Cc1cccc(C(=O)Oc2ccc(/C=N/NC(=O)c3ccncc3)cc2)c1,,inactive: 3.02%
Cc1cc(NC(=O)Cc2cccs2)no1,"inconclusive: 10.6 µM [inhibitor, partial curve]",
CC1(C)C(=O)Nc2ccccc2N1C(=O)COC(=O)CCSc1ccccc1,,inactive: -5.82%
c1ccc(C[C@H]2CN=C(Nc3ccccc3)N2CC2CCCCCC2)cc1,"inconclusive: 89.1 µM [inhibitor, single point]",
Cc1ccc(/C=C2/C(=O)ON=C2c2ccccc2)o1,"inconclusive: 44.7 µM [inhibitor, partial curve]",
COc1cccc(-c2ccc3nnc(SCC(=O)Nc4ccc(NC(C)=O)cc4)n3n2)c1,"inconclusive: 79.4 µM [inhibitor, partial curve]",
Cc1nnc(-c2cccc(Br)c2)c2cn(-c3ccccc3)nc12,,inactive: 2.09%
O=c1[nH]c2ccccc2nc1/C=C/c1ccc(Cl)cc1,"inconclusive: 89.1 µM [inhibitor, single point]",
Cc1cccc2cc(/C=N/NC(=O)c3ccccc3O)c(Cl)nc12,"inconclusive: 50.1 µM [inhibitor, partial curve]",
N#CC1=C(N)SC(N)=C(C#N)C1Cc1ccccc1,,inactive: -21%
COc1ccc(/C=C2\C(=O)ON=C2c2ccccc2)cc1,active: 31.6 µM,

# Part of the list above, with bars between the fields:
SMILES | Potency | activity change, negative = inhibition
CCOC(=O)Cc1cc(=O)n2[nH]c(-c3ccccc3)c(-c3ccccc3)c2n1 | inconclusive: 25.1 µM [inhibitor, single point] | 
CCc1ccc(OCC(=O)N/N=C\c2ccco2)c([N+](=O)[O-])c1 | inconclusive: 1.5 µM [inhibitor, full curve, poor fit] | 
Cc1ccc2c(=O)cc(C(=O)NCCc3ccc(S(N)(=O)=O)cc3)oc2c1 | inconclusive: 56.2 µM [inhibitor, partial curve] | 
Cc1ccc(S(=O)(=O)/N=C2\C=C(Nc3cccc(C(=O)O)c3)C(=O)c3ccccc32)c(C)c1 | inconclusive: 15.8 µM [inhibitor, full curve, poor fit] | 
CC1CN(c2ccccc2)NC1=O (stereo not given) |  | inactive: -18.9%
Cc1ccc(S(=O)(=O)NN2C(=O)/C(=C\c3ccc(Cl)cc3)SC2=S)cc1 | inconclusive: 89.1 µM [inhibitor, single point] | 
Cn1ncc(Cl)c1C(=O)N1CCN(S(=O)(=O)c2ccc(Cl)s2)CC1 | inconclusive: 44.7 µM [inhibitor, partial curve] | 
Cc1cc(C)c2nc(-c3ccccn3)cc(C(=O)Nc3cc(C)on3)c2c1 |  | inactive: -24.1% [at 57.1 µM]
CSc1nnc2c3cc(C)ccc3n(Cc3ccccc3)c2n1 | inconclusive: 79.4 µM [inhibitor, partial curve] | 
CC(C)C(CCNC(=O)CC(Cc1ccccc1)c1ccco1)c1ccco1 (stereo not given) |  | inactive: -12.2% [at 11.6 µM]
Cc1cccc(C(=O)Oc2ccc(/C=N/NC(=O)c3ccncc3)cc2)c1 |  | inactive: 3.02%
Cc1cc(NC(=O)Cc2cccs2)no1 | inconclusive: 10.6 µM [inhibitor, partial curve] | 
CC1(C)C(=O)Nc2ccccc2N1C(=O)COC(=O)CCSc1ccccc1 |  | inactive: -5.82%
c1ccc(C[C@H]2CN=C(Nc3ccccc3)N2CC2CCCCCC2)cc1 | inconclusive: 89.1 µM [inhibitor, single point] | 
Cc1ccc(/C=C2/C(=O)ON=C2c2ccccc2)o1 | inconclusive: 44.7 µM [inhibitor, partial curve] | 
COc1cccc(-c2ccc3nnc(SCC(=O)Nc4ccc(NC(C)=O)cc4)n3n2)c1 | inconclusive: 79.4 µM [inhibitor, partial curve] | 
Cc1nnc(-c2cccc(Br)c2)c2cn(-c3ccccc3)nc12 |  | inactive: 2.09%
O=c1[nH]c2ccccc2nc1/C=C/c1ccc(Cl)cc1 | inconclusive: 89.1 µM [inhibitor, single point] | 
Cc1cccc2cc(/C=N/NC(=O)c3ccccc3O)c(Cl)nc12 | inconclusive: 50.1 µM [inhibitor, partial curve] | 

# The listing continues.

SMILES,Potency,"activity change, negative = inhibition"
CSc1ccccc1NC(=O)c1cc(-c2cccnc2)nc2ccc(Br)cc12,"inconclusive: 3.55 µM [inhibitor, full curve, poor fit]",
C=CC[C@H]1CC(C)=C[C@H](CC=C)N1C(=O)c1cc(COc2ccccc2SC)on1,"inconclusive: 28.2 µM [inhibitor, full curve, poor fit]",
COc1ccc(NS(=O)(=O)c2cccc(C(=O)NN=Cc3cc(Br)c(O)c(Br)c3)c2)cc1,"inconclusive: 89.1 µM [inhibitor, single point]",
COc1ccccc1C1CCN(Cc2ccc(C)cc2)CC1,"inconclusive: 56.2 µM [inhibitor, partial curve]",
CC(C)Cn1c(N)c(C(=O)COC(=O)c2cc(-c3ccco3)nc3ccccc23)c(=O)n(C)c1=O,"inconclusive: 50.1 µM [inhibitor, partial curve]",
CN(C)CCCNc1nc2cc(-c3ccc4c(ccn4C)c3)sc2c(=O)n1C,"inconclusive: 44.7 µM [inhibitor, partial curve]",
COCCN1C(=O)c2oc3ccccc3c(=O)c2C1c1ccc(OC)c(OC)c1 (stereo not given),"inconclusive: 79.4 µM [inhibitor, partial curve, poor fit]",
Oc1cc(O)c2c(c1)O[C@H](c1ccc(O)c(O)c1)[C@H](O)C2,,inactive: -6.24%
CCOC(=O)c1c(-c2ccccc2)csc1NC(=O)/C(C#N)=C/c1ccc(O)c(OC)c1,"inconclusive: 79.4 µM [inhibitor, partial curve]",
CCSc1nnc(-c2ccncc2)o1,,inactive: 0.94%
O=C(O)C1CCCCC1C(=O)Nc1ccccc1Nc1ccccc1 (stereo not given),"inconclusive: 89.1 µM [inhibitor, single point]",
Cc1oc(/N=C/c2ccccc2)c(C#N)c1C,,inactive: -2.27%
COc1ccc(C(=O)COc2ccccc2C#N)cc1,"inconclusive: 39.8 µM [inhibitor, single point]",
O=C(CSc1nc2cc(Cl)ccc2s1)NC(=O)NCc1ccco1,"inconclusive: 56.2 µM [inhibitor, partial curve]",
CC1(C)CCCN(C(=O)c2coc(=O)c(Br)c2)C1,active: 17.8 µM,
CCCCC(=O)Nc1ccc(C(=O)NNC(=O)CCc2ccccc2)cc1,,inactive: -20%
O=C(NCCc1ccccc1)/C(=C/c1ccco1)c1ccccc1,"inconclusive: 44.7 µM [inhibitor, partial curve]",
O=C(Cc1nnc(NC(=O)c2ccccc2)s1)N/N=C/c1cccc(O)c1,"inconclusive: 70.8 µM [inhibitor, single point]",
O=[N+]([O-])c1cc(-c2ccc(C(=S)N3CCOCC3)o2)ccc1Cl,,inactive: 9.06%
Cc1cc(C(=O)N/N=C/c2ccc(C)s2)n[nH]1,"inconclusive: 89.1 µM [inhibitor, single point]",
O=C(N/N=C/c1ccccn1)c1cc(-c2ccc(Br)cc2)nc2ccccc12,"inconclusive: 5.62 µM [inhibitor, full curve, poor fit]",
CNc1ccc(Br)cc(C(=O)/C=C/c2ccc3c(c2)OCO3)c1=O,"inconclusive: 39.8 µM [inhibitor, partial curve]",
